Measured values as given in US7101967B2 (priority 1998, dated 2006).
* marks the point of attachment. Biotin = O=C1N[C@H]2[C@H](CS[C@H]2CCCCC(=O)*)N1; βAla = NCCC(=O)O

Assay: general procedure: Fmoc solid-phase peptide synthesis; Macro Crowns (SynPhase HM Series I, Rink Amide Linker); Fmoc-Cys(Trt)-resin / Fmoc-Lys(Boc)-resin (0.5 mmol/g); Rink Ami; PyBOP/HOBt/DIEA (1:1:1.5)
Details: for isolated yield: on resin loading
[1] = whole synthesis, 214 nm, scale of the general procedure 5.3 μmol/crown, 0.25 mmol
[2] = whole synthesis, scale of the general procedure 5.3 μmol/crown, 0.25 mmol
[3] = conjugation step, Anal. RP-HPLC, chromatogram integration (λ = 214 nm)

Row | Substance | final HPLC purity [1] [%] | isolated yield [2] [%] | conjugation yield (conjugation step) [%] | final HPLC purity [3] [%]
1 | {Biotin-βAla}-RMKWKK-NH2 | 96 | 81 |  | 
2 | {Biotin-βAla}-RQIKIWFANRRMKWKK-NH2 | 79 | 49 |  | 
3 | {Biotin-βAla}-RQIKIWFQN-NH2 | 95 | 59 | 63 | >98
4 | {Biotin-βAla}-RQIKIW-NH2 | 93 | 53 | 46 | >98
5 | {Biotin-βAla}-RQIKIWFQNRRMKWKA-NH2 | 73 | 76 |  | 
6 | {Biotin-βAla}-RQIAIWFQNRRMKWKK-NH2 | 76 | 48 |  | 
7 | {Biotin-βAla}-RQIKIWFQNRRMKW-NH2 | 79 | 40 |  | 
8 | {Biotin-βAla}-RQIKIWFQNRRAKWKK-NH2 | 96 | 49 |  | 
9 | {Biotin-βAla}-RQIKIWFQNRR-NH2 | 98 | 58 | 57 | >98
10 | {Biotin-βAla}-RQIKIWFQNRAMKWKK-NH2 | 77 | 58 |  | 
11 | {Biotin-βAla}-QNRRMKWKK-NH2 | 93 | 67 |  | 
12 | {Biotin-βAla}-RQIKIWFQNRRMKAKK-NH2 | 83 | 66 |  | 
13 | {Biotin-βAla}-RQIKIWFQNRRMAWKK-NH2 | 79 | 52 |  | 
14 | {Biotin-βAla}-RQIKIWFQNRRMKWK-NH2 | 78 | 53 |  | 
15 | {Biotin-βAla}-RQIKAWFQNRRMKWKK-NH2 | 80 | 51 |  | 
16 | {Biotin-βAla}-RQIKIWFQARRMKWKK-NH2 | 75 | 43 |  | 
17 | {Biotin-βAla}-RRMKWKK-NH2 | 94 | 73 |  | 
18 | {Biotin-βAla}-RQIKIWAQNRRMKWKK-NH2 | 78 | 47 |  | 
19 | {Biotin-βAla}-RQIKIWFQNRRMKWAK-NH2 | 78 | 68 |  | 
20 | Biotinyl-βAla-Arg-Gln-Ile-Lys-Ile-Trp-Phe-Gln-Asn-Arg-Arg-Met-Lys-Trp-Lys-Lys-NH2 (ARQIKIWFQNRRMKWKK; N-terminal biotin, beta-residue; C-terminal amide; MOD_RES (1) bAla) | 78 | 50 |  | 
21 | {Biotin-βAla}-FQNRRMKWKK-NH2 | 91 | 58 | 97 | >98
22 | {Biotin-βAla}-RQIKIWFQNARMKWKK-NH2 | 77 | 43 |  | 
23 | {Biotin-βAla}-RQAKIWFQNRRMKWKK-NH2 | 80 | 44 |  | 
24 | {Biotin-βAla}-RQIKIAFQNRRMKWKK-NH2 | 80 | 52 |  | 
25 | {Biotin-βAla}-RQIKIWFQNRRMK-NH2 | 75 | 67 |  | 
26 | {Biotin-βAla}-NRRMKWKK-NH2 | 93 | 57 |  | 
27 | {Biotin-βAla}-RAIKIWFQNRRMKWKK-NH2 | 79 | 47 |  | 
28 | {Biotin-βAla}-AQIKIWFQNRRMKWKK-NH2 | 66 | 44 |  | 
